Experimental findings from PMC7819943, “Rice protein-binding microarrays: a tool to detect cis-acting elements near promoter regions in rice” are described below.

Chains of the proteins cited; added tags and fusions are not shown.
UniProt Q0JBA9, entry or part of it: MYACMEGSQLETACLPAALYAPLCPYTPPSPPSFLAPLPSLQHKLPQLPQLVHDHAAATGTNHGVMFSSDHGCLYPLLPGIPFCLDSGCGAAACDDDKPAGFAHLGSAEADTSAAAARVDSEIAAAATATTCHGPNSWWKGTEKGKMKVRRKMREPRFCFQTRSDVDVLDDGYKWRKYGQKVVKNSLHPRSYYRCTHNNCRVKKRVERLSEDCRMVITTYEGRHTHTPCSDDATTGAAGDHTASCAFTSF

This is one part of the list.

The experiment deals with OsWRKY34 (Oryza sativa, UniProt Q0JBA9 1-250). As to the kind of experiment: protein-binding microarray (RPBM); PBS, 2% BSA, 51.3 ng/ul salmon testes DNA, 50 uM zinc acetate, 200 nM TF, 25 C, 1 h; high values mean tight binding. To be noted: protein: recombinant; tags: N-terminal polyhistidine and DsRed monomer fusion (pET32a); label: CyDye5-dUTP incorporated in the synthesized complementary strand; 3' TTTTT single-stranded linker to array surface; dsDNA, one strand shown. In a few lines:
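Transcription factors were made in E. coli BL21-CodonPlus as N-terminal fusions to a polyhistidine tag and DsRed, then purified on Ni–NTA. After primer extension with Cy5-dUTP and blocking with 2% BSA, a custom Agilent array was exposed for 1 h at 25 °C to 200 nM protein in PBS, 2% BSA, salmon testes DNA and 50 µM zinc acetate. Washed arrays were scanned on an Axon 4000B, and the binding signal is per-feature fluorescence intensity in arbitrary units.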
Turning to “CAGGGGCAGTACTATCACAATTTCAAGTTCACCTGTCTCTCGGAGTCACCTAGTGCAG”, the binding signal is 8540 fluorescence intensity (a.u.).

As to “TCGTTTTTTTGTGGGTCCTCATCTCCTCTCCTCCCACCACCGGAGTCACCTAGTGCAG”, the binding signal was 8060 fluorescence intensity (a.u.).

As to “ACACGCCCAGTACACTCACATGCACCCAACTCAACTGCCCCGGAGTCACCTAGTGCAG”, the binding signal was 9510 fluorescence intensity (a.u.).

“GTAATTGACGTGGACTTTTTTTAATTTGAGTATCTATAATCGGAGTCACCTAGTGCAG”: the binding signal is 8220 fluorescence intensity (a.u.).

For “ACGACGACGACAAATTTTCCGGTGTGTTTATAATTAATATCGGAGTCACCTAGTGCAG”, the binding signal was 8620 fluorescence intensity (a.u.).

In the case of “ACCGCCAAATCGCCAATCTCCCACCTCGTCACGCATGCGTCGGAGTCACCTAGTGCAG”, the binding signal is 8890 fluorescence intensity (a.u.).

As to “GCCGCTTCCATCTACTCGACTTGCAACCTGGTCATGAGAACGGAGTCACCTAGTGCAG”, the binding signal was 10100 fluorescence intensity (a.u.).

For the sequence “CGAGGAGCGGGGTGGGGTCGGAGGCGGGGAGGGAGGACGCCGGAGTCACCTAGTGCAG”, the binding signal was 16100 fluorescence intensity (a.u.).

With “ACCAACACGTACCTCCACATTGCAACCCATCCATCCGTCCCGGAGTCACCTAGTGCAG”, the binding signal was 8320 fluorescence intensity (a.u.).

With “CAACTCCGCTCGCCAATCCACAGCTGGCCTCCATTTCTTCCGGAGTCACCTAGTGCAG”, the binding signal was 8870 fluorescence intensity (a.u.).

In the case of “CCGTGCCCAACGTTTGACCGTCCGTTTTATTTGAAAAATTCGGAGTCACCTAGTGCAG”, the binding signal was 10800 fluorescence intensity (a.u.).

With “CGCCGCCCGATCCGCCGCCACCGCCACCGCCACCGCCGGCCGGAGTCACCTAGTGCAG”, the binding signal is 11400 fluorescence intensity (a.u.).

On to “GTCGTGACCCTCCTTGCCGTCCTCCTCCAAACCGACTTCCCGGAGTCACCTAGTGCAG”, for which the binding signal is 9650 fluorescence intensity (a.u.).

For “GCGTACGTTTTTTCATACCTGGACCCAGATGTATCTTTTCCGGAGTCACCTAGTGCAG”, the binding signal was 10200 fluorescence intensity (a.u.).

Turning to “ATCTTGTTGTCTGATTATTGATTTTTCGCGAAACCATTTGCGGAGTCACCTAGTGCAG”, the binding signal is 11100 fluorescence intensity (a.u.).

As to “CATCCGTGTATAAGTCGGTTTTTAAGTTCGTTCACCTTTGCGGAGTCACCTAGTGCAG”, the binding signal was 10000 fluorescence intensity (a.u.).

Consider “AGGGGAGGGGAGGGGAGCCCTTCGCCGGAGCGGCCAGGTTCGGAGTCACCTAGTGCAG”, for which the binding signal is 13600 fluorescence intensity (a.u.).

With “CGCCTCAGAGGTGGGCGGCAGGGTCTATTTTTATAATTTTCGGAGTCACCTAGTGCAG”, the binding signal was 9490 fluorescence intensity (a.u.).

As for “CGTCAATTCATTGAGATCTCGGTCAGTTAGTCGGTATCCGCGGAGTCACCTAGTGCAG”, the binding signal was 8110 fluorescence intensity (a.u.).

Consider “GTAAACAAGCGATTCATTAATATTTACATTTCTCGATGCCCGGAGTCACCTAGTGCAG”, for which the binding signal is 8090 fluorescence intensity (a.u.).

Consider “GGTGGTAGAGGGTAAAAGGTACTGTCACATGTTCATTATTCGGAGTCACCTAGTGCAG”, for which the binding signal was 12800 fluorescence intensity (a.u.).

For “GCACGACGTACCATTGTTGATTATTCTCTACACGCACACACGGAGTCACCTAGTGCAG”, the binding signal is 8930 fluorescence intensity (a.u.).

Turning to “CACTCGTACCATGCCATGACTTTCACGAGACCCTTTTTTACGGAGTCACCTAGTGCAG”, the binding signal is 8040 fluorescence intensity (a.u.).

Regarding “GACCCACTGACGGGTGGGTCCCATATATTTTATTTTTTTACGGAGTCACCTAGTGCAG”, the binding signal was 9100 fluorescence intensity (a.u.).

With “AACCCGACCGTCCGATCCCTCCACGACGGCTCTCAGTCGCCGGAGTCACCTAGTGCAG”, the binding signal was 8860 fluorescence intensity (a.u.).

As for “AATGTCCACGTCGTAAGTATCAACTAGGTCTATTACAAATCGGAGTCACCTAGTGCAG”, the binding signal is 9400 fluorescence intensity (a.u.).

Regarding “CCTCCGGATCTACCGACAATTTTTTTTGCCTCGCCACGTACGGAGTCACCTAGTGCAG”, the binding signal is 9710 fluorescence intensity (a.u.).

Take “ATTTAGGTGGCGGTAGCAATCCCCGGGCTTCTTTTCTCCCCGGAGTCACCTAGTGCAG”: the binding signal was 8330 fluorescence intensity (a.u.).

With “ATCTAGCCATCATTAATCTCTATGGCTTGATTTCCTATTCCGGAGTCACCTAGTGCAG”, the binding signal is 10100 fluorescence intensity (a.u.).

Consider “ATCCATCCGTTCCGTTTAGTTTGCTCCAAGCGCAAGCGCACGGAGTCACCTAGTGCAG”, for which the binding signal is 10500 fluorescence intensity (a.u.).

“GAGAGTTTATGCCCGGTCCTTCGAGAACATACACAGCAACCGGAGTCACCTAGTGCAG”: the binding signal is 8690 fluorescence intensity (a.u.).

Regarding “CATCCTACTTTGTTGCTGCTTGGAACGCTCCATGCATGTCCGGAGTCACCTAGTGCAG”, the binding signal is 8580 fluorescence intensity (a.u.).

With “GAAGAACTGATTTTTGGAGGTGGGGTTCAGCTTGCTGGCTCGGAGTCACCTAGTGCAG”, the binding signal was 9010 fluorescence intensity (a.u.).

“ATGGGACCCACCAACCATTGTCTCTCACTCTCTCCCCTCGCGGAGTCACCTAGTGCAG”: the binding signal was 8840 fluorescence intensity (a.u.).

Regarding “ATTCTGCCTCAAAAAGTACTTTCATACTATTTTAATTTTTCGGAGTCACCTAGTGCAG”, the binding signal is 10400 fluorescence intensity (a.u.).

Regarding “CTGCCCACCGCGACCCCGTTTTGTCCGCCCTCCGTGCTACCGGAGTCACCTAGTGCAG”, the binding signal is 11800 fluorescence intensity (a.u.).

As for “CGCCGATGACGACCCGCCATTGTTTTCTCTCTTTCTTTTTCGGAGTCACCTAGTGCAG”, the binding signal is 12200 fluorescence intensity (a.u.).

Turning to “TGGCTCCTTTTAAGTTATTCTTCCCAAACAGACATGATTTCGGAGTCACCTAGTGCAG”, the binding signal is 8660 fluorescence intensity (a.u.).

Regarding “GTCAGGTGGCAGGCATGTTTGTTCCCTCTCGCCCCTCCTTCGGAGTCACCTAGTGCAG”, the binding signal is 8240 fluorescence intensity (a.u.).

On to “TATCCATACCTCTCGCCATAACATAATCCGACTTCATTAACGGAGTCACCTAGTGCAG”, for which the binding signal was 10400 fluorescence intensity (a.u.).

Take “ATCCGAGGGGAAGTAGGGTTTGGAGGAGGAGGAGGGGAGACGGAGTCACCTAGTGCAG”: the binding signal was 9320 fluorescence intensity (a.u.).

“TTGTATACATGTTTCAAGTTTTTTCTGGTATATTTAGGTTCGGAGTCACCTAGTGCAG”: the binding signal was 8570 fluorescence intensity (a.u.).
